Results as given in the supplement of paper PMC8858631.
Structures can show the parent of a compound that is named as a salt. This is one part of the list. No stated cut-off is given here; in the data, active = 0.5 or less and inactive = the rest. Many values rest on one well or one pass, so single values are uncertain.

These compounds were tested on SK-MEL-28 (assay: EEF2K protein level normalised to actin (western blot) after treatment (ratio (EEF2K/Actin)); higher = more EEF2K protein remaining (less EEF2K suppression)). Details: 5 µM; 24 h.

Structure (SMILES)	EEF2K protein level normalised to actin
O=C(O)c1cc(O)c(O)c(O)c1 [Gallic acid]	inactive: 1.58
O=C(c1cc(Cc2n[nH]c(=O)c3ccccc23)ccc1F)N1CCN(C(=O)C2CC2)CC1	inactive: 1.22
Cc1nc(Nc2ncc(C(=O)Nc3c(C)cccc3Cl)s2)cc(N2CCN(CCO)CC2)n1 [Dasatinib Monohydrate]	inactive: 2.3
Cc1nc(Nc2ncc(C(=O)Nc3c(C)cccc3Cl)s2)cc(N2CCN(CCO)CC2)n1 [Dasatinib hydrochloride]	inactive: 1.16
C/C=C(/C(=C/C)c1ccc(O)cc1)c1ccc(O)cc1 [Dienestrol]	inactive: 0.52
CCCCCOC(=O)Nc1nc(=O)n([C@@H]2O[C@H](C)[C@@H](O)[C@H]2O)cc1F [Capecitabine]	inactive: 1.96
COc1cc(Nc2c(C#N)cnc3cc(OCCCN4CCN(C)CC4)c(OC)cc23)c(Cl)cc1Cl [Bosutinib (SKI-606)]	inactive: 0.67
Nc1nc2[nH]cc(CCc3ccc(C(=O)N[C@@H](CCC(=O)O)C(=O)O)cc3)c2c(=O)[nH]1 [Pemetrexed]	inactive: 1.83
Nc1nc2[nH]cc(CCc3ccc(C(=O)N[C@@H](CCC(=O)O)C(=O)O)cc3)c2c(=O)[nH]1 [Pemetrexed Disodium Hydrate]	inactive: 0.58
COC(=O)c1ccc2c(C(=Nc3ccc(N(C)C(=O)CN4CCN(C)CC4)cc3)c3ccccc3)c(O)[nH]c2c1 [Nintedanib Ethanesulfonate Salt]	inactive: 0.59
COc1cc2ncnc(Nc3ccc(F)c(Cl)c3)c2cc1NC(=O)/C=C/CN1CCCCC1	inactive: 0.51
O=C(O)C1(C(=O)O)CCC1.[NH2-].[NH2-].[Pt+2] [Carboplatin]	inactive: 1.06
CNC(=O)c1cc(Oc2ccc(NC(=O)Nc3ccc(Cl)c(C(F)(F)F)c3)cc2)ccn1 [Sorafenib Tosylate]	inactive: 1.44
CN(C)C/C=C/C(=O)Nc1cc2c(Nc3ccc(F)c(Cl)c3)ncnc2cc1O[C@H]1CCOC1 [Afatinib (BIBW2992) Dimaleate]	inactive: 0.51
Cc1ccc(NC(=O)c2ccc(CN3CCN(C)CC3)cc2)cc1Nc1nc(-c2cccnc2)cs1 [Masitinib (AB1010)]	inactive: 1.29
Cc1cc2c(C(N)=O)cccc2n1-c1nc2c(c(NCc3ccccc3)n1)COCC2	inactive: 0.51
Nc1ccccc1NC(=O)c1ccc(CNC(=O)OCc2cccnc2)cc1 [Entinostat (MS-275)]	inactive: 0.79
CC#CC(=O)N1CCC[C@H]1c1nc(-c2ccc(C(=O)Nc3ccccn3)cc2)c2c(N)nccn12 [Acalabrutinib (ACP-196)]	inactive: 1.69

Structure (SMILES)	EEF2K protein level normalised to actin
CC(C)c1nc(CN(C)C(=O)N[C@@H](CCN2CCOCC2)C(=O)N[C@H](CC[C@H](Cc2ccccc2)NC(=O)OCc2cncs2)Cc2ccccc2)cs1 [Cobicistat (GS-9350)]	inactive: 0.81
CC(=O)OCC(CCn1cnc2cnc(N)nc21)COC(C)=O [Famciclovir]	inactive: 1.7
C[C@@H](Oc1cc(-c2cnn(C3CCNCC3)c2)cnc1N)c1c(Cl)ccc(F)c1Cl	active: 0.17
COc1cc(/C=C/C(=O)CC(=O)/C=C/c2ccc(O)c(OC)c2)ccc1O [Curcumin]	inactive: 0.75
COc1cc([C@@H]2c3cc4c(cc3[C@@H](O[C@@H]3O[C@@H]5CO[C@@H](C)O[C@H]5[C@H](O)[C@H]3O)[C@H]3COC(=O)[C@H]23)OCO4)cc(OC)c1O [Etoposide]	inactive: 0.77
Cc1nc(NC(=O)N2CCC[C@H]2C(N)=O)sc1-c1ccnc(C(C)(C)C(F)(F)F)c1 [Alpelisib (BYL719)]	inactive: 1.08
O=NN(CCCl)C(=O)NC1CCCCC1 [Lomustine]	inactive: 0.69
Cc1cc(Nc2ncc(Cl)c(Nc3ccccc3S(=O)(=O)C(C)C)n2)c(OC(C)C)cc1C1CCNCC1 [Ceritinib (LDK378)]	inactive: 6.06
CNC(=O)c1cc(Oc2ccc(NC(=O)Nc3ccc(Cl)c(C(F)(F)F)c3)cc2)ccn1 [Sorafenib]	inactive: 2.28
O=S1(=O)CCN(CN2CCS(=O)(=O)NC2)CN1 [Taurolidine]	inactive: 1.2
COc1cccc2c1C(=O)c1c(O)c3c(c(O)c1C2=O)CC(O)(C(=O)CO)CC3OC1CC(N)C(O)C(C)O1 (stereo unspecified) [Doxorubicin (Adriamycin) HCl]	inactive: 2.09
S=c1nc[nH]c2nc[nH]c12 [6-Mercaptopurine (6-MP) Monohydrate]	inactive: 1.17
CCOC(=O)c1ccc(OC(=O)CCCCCNC(=N)N)cc1 [Gabexate Mesylate]	inactive: 1.18
FC(F)(F)c1ccc(CNc2ccc(Cc3c[nH]c4ncc(Cl)cc34)cn2)cn1 [Pexidartinib (PLX3397)]	inactive: 1.25
Nc1nc(=O)c2c([nH]1)NCC(CNc1ccc(C(=O)N[C@@H](CCC(=O)O)C(=O)O)cc1)N2C=O (stereo partly specified) [Leucovorin Calcium Pentahydrate]	inactive: 0.91
CNC[C@H](O)c1ccc(O)c(O)c1 [Epinephrine bitartrate]	inactive: 2.09
O=C(CCCCCCC(=O)Nc1ccccc1)NO [Vorinostat (SAHA, MK0683)]	inactive: 0.79
Nc1nc(F)nc2c1ncn2[C@@H]1O[C@H](COP(=O)(O)O)[C@@H](O)[C@@H]1O [Fludarabine Phosphate]	inactive: 0.59
